The values that follow come from doi:10.1101/383497.

Amino acid sequences for entries named in this document (tags omitted).
UniProt Q15796: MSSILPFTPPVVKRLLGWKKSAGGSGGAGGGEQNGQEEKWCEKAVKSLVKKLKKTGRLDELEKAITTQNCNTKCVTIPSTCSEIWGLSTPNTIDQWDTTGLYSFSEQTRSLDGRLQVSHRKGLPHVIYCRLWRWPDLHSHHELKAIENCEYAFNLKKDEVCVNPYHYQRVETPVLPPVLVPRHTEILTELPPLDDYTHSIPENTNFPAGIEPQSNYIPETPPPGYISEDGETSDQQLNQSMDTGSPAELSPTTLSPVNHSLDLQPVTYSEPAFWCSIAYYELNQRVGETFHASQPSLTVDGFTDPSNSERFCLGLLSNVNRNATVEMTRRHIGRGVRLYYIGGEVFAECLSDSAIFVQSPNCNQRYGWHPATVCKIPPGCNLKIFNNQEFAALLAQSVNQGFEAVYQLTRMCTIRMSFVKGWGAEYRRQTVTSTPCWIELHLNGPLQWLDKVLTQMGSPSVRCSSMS

No constants are given. Whether binding was seen depends on the method and setting. Binding seen in cells or lysates may run through a third protein. Some results given as binding are weak or reduced against the parent protein; the word gives no strength.

The assay deals with p53 (human (endogenous in AGS-EBV)) (UniProt P04637). Put plainly: co-IP.

In the case of SMAD2 (from UniProt Q15796 1-467), the binding result is “binds”.
